Results reported in article doi:10.1101/2023.08.11.553045.
No constants are given. Whether binding was seen depends on the method and setting. Binding seen in cells or lysates may run through a third protein. Some entries that bind do so weakly or less than the wild type. Sequences can lack the tags named with a protein.

The chains behind the UniProt entries cited, without tags or fusion partners. Where a name states a change or a piece, a line headed by the entry shows the natural chain unless it says otherwise.
UniProt Q86WV6: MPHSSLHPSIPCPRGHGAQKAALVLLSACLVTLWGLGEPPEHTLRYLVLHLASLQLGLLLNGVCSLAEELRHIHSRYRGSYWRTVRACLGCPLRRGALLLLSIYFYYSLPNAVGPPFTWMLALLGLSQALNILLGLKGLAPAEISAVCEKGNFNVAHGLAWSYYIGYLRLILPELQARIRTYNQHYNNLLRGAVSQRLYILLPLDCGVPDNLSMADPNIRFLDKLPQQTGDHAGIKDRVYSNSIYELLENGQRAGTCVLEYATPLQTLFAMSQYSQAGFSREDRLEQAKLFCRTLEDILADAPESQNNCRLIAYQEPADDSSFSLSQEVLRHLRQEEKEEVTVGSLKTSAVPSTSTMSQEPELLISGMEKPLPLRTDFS

Target: T1, CTT7-FLAG (expressed in cells) (human)
T1 sequence: MEKPLPL
Experiment: co-IP

Substance | binding
STING Q273A/A277Q (STING-AQ) (from UniProt Q86WV6 1-379) | binds
human STING, wild type (WT-STING) (from UniProt Q86WV6 1-379) | binds
